Measurements published in article PMC5884528.
These are yes or no findings as the source states them, for the method shown. Binding seen in cells or lysates may run through a third protein. Some entries that bind do so weakly or less than the wild type.

Molecular target: T1, First Apoptosis Signal receptor (FAS) (human (endogenous in hVSMCs)), P25445
T1 chain: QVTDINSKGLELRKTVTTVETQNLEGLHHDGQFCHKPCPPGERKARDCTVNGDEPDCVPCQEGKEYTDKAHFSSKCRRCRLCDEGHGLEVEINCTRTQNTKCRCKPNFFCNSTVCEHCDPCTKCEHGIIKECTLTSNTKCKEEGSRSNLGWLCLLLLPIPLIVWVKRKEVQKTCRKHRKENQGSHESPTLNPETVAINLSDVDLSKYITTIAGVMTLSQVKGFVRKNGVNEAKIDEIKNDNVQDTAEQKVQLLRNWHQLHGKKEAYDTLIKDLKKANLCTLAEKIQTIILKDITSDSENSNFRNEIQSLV
Assay: co-IP; lysates of hVSMCs infected with RAd60 or RAd-T3 (600 pfu/cell) for 48 h; IP with anti-FAS monoclonal 3D5 and protein-G sepharose at 4°C; IP buffer 20 mM Tris-HCl pH 7.4, 150 mM NaCl, 10 mM EDTA, 10% glycerol, 1% NP40, 1% Triton-X100; blot probed for caspase-8 and FAS
Conditions: remark: other sources report otherwise

binding: binds
B1: procaspase-8, Q14790 1-479 (enzyme)
chain: MDFSRNLYDIGEQLDSEDLASLKFLSLDYIPQRKQEPIKDALMLFQRLQEKRMLEESNLSFLKELLFRINRLDLLITYLNTRKEEMERELQTPGRAQISAYRVMLYQISEEVSRSELRSFKFLLQEEISKCKLDDDMNLLDIFIEMEKRVILGEGKLDILKRVCAQINKSLLKIINDYEEFSKERSSSLEGSPDEFSNGEELCGVMTISDSPREQDSESQTLDKVYQMKSKPRGYCLIINNHNFAKAREKVPKLHSIRDRNGTHLDAGALTTTFEELHFEIKPHDDCTVEQIYEILKIYQLMDHSNMDCFICCILSHGDKGIIYGTDGQEAPIYELTSQFTGLKCPSLAGKPKVFFIQACQGDNYQKGIPVETDSEEQPYLEMDLSSPQTRYIPDEADFLLGMATVNNCVSYRNPAEGTWYIQSLCQSLRERCPRGDDILTILTEVNYEVSNKDDKKNMGKQMPQPTFTLRKKLVFPSD
